In patent publication US12577231B2, “Androgen receptor PROTACS” (GlaxoSmithKline Intellectual Property Development Limited, priority 2023, dated 2026):
Some entries share one result that the patent states for a list of compounds.

How the values were obtained:
[1] = target: T1, Androgen Receptor protein in human LnCaP cells (Homo sapiens, UniProt P10275, T878A); assay: Androgen Receptor Degradation Assay (Nano-Glo HiBiT, LnCaP cells); type: cell-based; conditions: HiBiT-tagged AR LnCaP cells, 18 h incubation
T1 construct: the AR gene was modified, using CRISPR/Cas9 editing, so the expressed AR protein included an 11 amino acid HiBiT tag; endogenous in cells; host or cells: clonal LnCaP derived cell line, endogenous AR gene edited by CRISPR/Cas9
T1 sequence (P10275 1-920 T878A): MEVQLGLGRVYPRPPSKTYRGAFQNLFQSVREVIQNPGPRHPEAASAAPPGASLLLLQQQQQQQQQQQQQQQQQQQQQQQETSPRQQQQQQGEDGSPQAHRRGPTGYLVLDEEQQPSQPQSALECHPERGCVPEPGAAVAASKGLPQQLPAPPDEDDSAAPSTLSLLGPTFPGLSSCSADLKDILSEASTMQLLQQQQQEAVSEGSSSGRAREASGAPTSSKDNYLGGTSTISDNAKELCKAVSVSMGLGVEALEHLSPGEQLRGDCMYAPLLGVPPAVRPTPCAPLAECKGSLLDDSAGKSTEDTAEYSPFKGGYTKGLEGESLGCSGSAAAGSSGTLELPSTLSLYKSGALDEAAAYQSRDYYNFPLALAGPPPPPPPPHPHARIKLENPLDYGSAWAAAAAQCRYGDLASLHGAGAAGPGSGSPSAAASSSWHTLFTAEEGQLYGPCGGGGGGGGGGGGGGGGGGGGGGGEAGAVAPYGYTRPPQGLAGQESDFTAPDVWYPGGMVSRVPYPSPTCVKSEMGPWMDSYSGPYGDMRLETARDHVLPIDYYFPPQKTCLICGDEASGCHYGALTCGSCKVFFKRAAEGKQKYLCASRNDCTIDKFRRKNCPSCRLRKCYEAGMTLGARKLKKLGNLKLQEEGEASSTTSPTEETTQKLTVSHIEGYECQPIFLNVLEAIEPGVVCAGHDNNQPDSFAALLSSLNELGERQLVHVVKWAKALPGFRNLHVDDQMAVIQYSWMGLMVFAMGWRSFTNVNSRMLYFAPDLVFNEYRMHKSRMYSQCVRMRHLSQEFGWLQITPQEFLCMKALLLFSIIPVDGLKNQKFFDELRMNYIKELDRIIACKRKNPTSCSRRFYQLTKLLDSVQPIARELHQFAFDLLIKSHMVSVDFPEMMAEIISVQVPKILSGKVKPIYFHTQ
Protocol: Degradation of Androgen Receptor protein in human LnCaP cells treated with PROTACs was quantified using the Nano-Glo® HiBiT Lytic Detection System (Promega) in 384 well assay plate format. A clonal LnCaP derived cell line was first established in which the AR gene was modified, using CRISPR/Cas9 editing, so the expressed AR protein included an 11 amino acid HiBiT tag at its amino-terminus. 10 mM DMSO stock solutions of PROTACs were prepared and diluted across an 11 concentration, 3 fold increment range, and 25 nL dispensed into a white opaque bottomed 384 well assay plate (Thermofisher) using an acoustic ECHO dispenser (Labcyte). Cells were grown in cell culture medium (RPMI 1640 supplemented with 15% FBS, penicillin 50U/mL and streptomycin 50 ug/mL (Thermofisher)). For the assay, cells were detached from flask and resuspended with assay medium (FluoroBrite™ DMEM supplemented with 10% heat inactivated FBS, penicillin 50U/mL and streptomycin 50 ug/mL (Thermofisher)). The cell suspension was centrifuged at 400 g for 5 min and the pellet resuspended in assay medium. 25 μL of cell suspension containing 10,000 cells was dispensed into each well of the assay plate containing a serial dilution of test compounds, which was then incubated for 18 h at 37° C./5% CO2. Control wells were included on each assay plate, with assay medium without cells being the no AR remaining 100% effect control, and cells treated with DMSO vehicle only, without PROTAC, the 0% effect control. 25 μL of Nano-Glo® HiBiT lysis buffer supplemented with LgBiT protein and Nano-Glo® substrate (Promega) was added to each well and the plate shaken at 500 rpm for 10 min at room temperature. The intensity of luminescence was measured using a PHERAstar microplate reader (BMG Labtech) and the % AR protein remaining in each well calculated by normalising the raw luminescence value to the above control wells. Parameters corresponding to the potency and efficacy estimates of the PROTACs were obtained from these normalised luminescence values using software (IDBS ActivityBase). These included the DC50 (concentration at which 50% of protein was degraded in M) and the Dmax (maximal degradation, in %) estimates. Two versions of the DC50, called relative DC50 and absolute DC50, were generated. These are the inflection point of a fitted 4 parameter sigmoidal response curve and the interpolated concentration of PROTAC corresponding to 50% of the protein being degraded, respectively. The corresponding pDC50 is reported as −log10(relative […]). The Dmax parameter was the maximum experimentally observed degradation and the asymptote max parameter the fitted response curve asymptote maximum.

[2] = test system: Androgen Receptor, 22RV1 (AR H875Y); assay: Androgen Receptor Degradation-Imaging Assay, 22RV-1 cell line; type: cell-based, human; conditions: 22RV-1, 16 hours treatment; for pDC50: immunofluorescence; for Dmax: maximum observed degradation

In the case of `CC1(C)[C@H](NC(=O)c2ccc(N3CCC(CN4CCC(n5ncc6c(N7CCC(=O)NC7=O)cccc65)CC4)CC3)c(F)c2)C(C)(C)[C@H]1Oc1ccc(C#N)c(Cl)c1` [Example 1, N-((1r,3r)-3-(3-Chloro-4-cyanophenoxy)-2,2,4,4-tetramethylcyclobutyl)-4-(4-((4-(4-(2,4-dioxotetrahydropyrimidin-1(2H)-yl)-1H-indazol-1-yl)piperidin-1-yl)methyl)piperidin-1-yl)-3-fluorobenzamide], the “mean relative pDC50” value [1] is reported as at least 7.0.

With `CC1(C)[C@H](NC(=O)c2ccc(N3CCC(CN4CCC(n5ncc6c(N7CCC(=O)NC7=O)cccc65)CC4)CC3)c(F)c2)C(C)(C)[C@H]1Oc1cnc(C#N)c(Cl)c1` [Example 3, N-((1r,3r)-3-((5-Chloro-6-cyanopyridin-3-yl)oxy)-2,2,4,4-tetramethylcyclobutyl)-4-(4-((4-(4-(2,4-dioxotetrahydropyrimidin-1(2H)-yl)-1H-indazol-1-yl)piperidin-1-yl)methyl)piperidin-1-yl)-3-fluorobenzamide] the “mean relative pDC50” value [1] was at least 7.0.

With `CCOc1cc(O[C@H]2C(C)(C)[C@H](NC(=O)c3ccc(N4CCC(CN5CCC(n6ncc7c(N8CCC(=O)NC8=O)cccc76)CC5)CC4)c(F)c3)C2(C)C)ccc1C#N` [Example 4, N-((1r,3r)-3-(4-Cyano-3-ethoxyphenoxy)-2,2,4,4-tetramethylcyclobutyl)-4-(4-((4-(4-(2,4-dioxotetrahydropyrimidin-1(2H)-yl)-1H-indazol-1-yl)piperidin-1-yl)methyl)piperidin-1-yl)-3-fluorobenzamide] the “mean relative pDC50” value [1] was at least 7.0.

For `CC1(C)[C@H](NC(=O)c2ccc(N3CCC(CN4CCC(n5ncc6c(N7CCC(=O)NC7=O)cccc65)CC4)CC3)c(F)c2)C(C)(C)[C@H]1Oc1ccc(C#N)c2c1CCCO2` [Example 8, N-((1r,3r)-3-((8-Cyanochroman-5-yl)oxy)-2,2,4,4-tetramethylcyclobutyl)-4-(4-((4-(4-(2,4-dioxotetrahydropyrimidin-1(2H)-yl)-1H-indazol-1-yl)piperidin-1-yl)methyl)piperidin-1-yl)-3-fluorobenzamide], the pDC50 [2] was at least 8.0 and the Dmax [2] was at least 80%.

`CC1(C)[C@H](NC(=O)c2ccc(N3CCC(CN4CC[C@H](n5ncc6c(N7CCC(=O)NC7=O)cccc65)C4)CC3)c(F)c2)C(C)(C)[C@H]1Oc1ccc(C#N)c(Cl)c1` [Example 10, N-((1r,3r)-3-(3-Chloro-4-cyanophenoxy)-2,2,4,4-tetramethylcyclobutyl)-4-(4-(((S)-3-(4-(2,4-dioxotetrahydropyrimidin-1(2H)-yl)-1H-indazol-1-yl)pyrrolidin-1-yl)methyl)piperidin-1-yl)-3-fluorobenzamide] was tested, and the “mean relative pDC50” value [1] was at least 7.0.

`CC1(C)[C@H](NC(=O)c2ccc(N3CCC(CN4CC[C@H](n5ncc6c(N7CCC(=O)NC7=O)cccc65)[C@H](F)C4)CC3)c(F)c2)C(C)(C)[C@H]1Oc1ccc(C#N)c(Cl)c1` [Example 14, N-((1r,3r)-3-(3-Chloro-4-cyanophenoxy)-2,2,4,4-tetramethylcyclobutyl)-4-(4-(((3R,4S)-4-(4-(2,4-dioxotetrahydropyrimidin-1(2H)-yl)-1H-indazol-1-yl)-3-fluoropiperidin-1-yl)methyl)piperidin-1-yl)-3-fluorobenzamide] was tested, and the “mean relative pDC50” value [1] was at least 7.0.

`COc1cc(O[C@H]2C(C)(C)[C@H](NC(=O)c3ccc(N4CCC(CN5CCC(n6ccc7c(N8CCC(=O)NC8=O)c(F)ccc76)CC5)CC4)c(F)c3)C2(C)C)ccc1C#N` [Example 23, N-((1r,3r)-3-(4-Cyano-3-methoxyphenoxy)-2,2,4,4-tetramethylcyclobutyl)-4-(4-((4-(4-(2,4-dioxotetrahydropyrimidin-1(2H)-yl)-5-fluoro-1H-indol-1-yl)piperidin-1-yl)methyl)piperidin-1-yl)-3-fluorobenzamide] was tested, and the “mean relative pDC50” value [1] was at least 7.0.

For `CC1(C)[C@H](NC(=O)c2ccc(N3CCC(CN4CCC(n5ccc6c(N7CCC(=O)NC7=O)cccc65)CC4)CC3)c(F)c2)C(C)(C)[C@H]1Oc1ccc(C#N)c2ncccc12` [Example 31, N-((1r,3r)-3-((8-Cyanoquinolin-5-yl)oxy)-2,2,4,4-tetramethylcyclobutyl)-4-(4-((4-(4-(2,4-dioxotetrahydropyrimidin-1(2H)-yl)-1H-indol-1-yl)piperidin-1-yl)methyl)piperidin-1-yl)-3-fluorobenzamide], the pDC50 [2] was at least 8.0 and the Dmax [2] was at least 80%.

With `CC1(C)[C@H](NC(=O)c2ccc(N3CCC(CN4CCC(n5ccc6c(N7CCC(=O)NC7=O)cc(F)cc65)CC4)CC3)c(F)c2)C(C)(C)[C@H]1Oc1ccc(C#N)c2ncccc12` [Example 32, N-((1r,3r)-3-((8-Cyanoquinolin-5-yl)oxy)-2,2,4,4-tetramethylcyclobutyl)-4-(4-((4-(4-(2,4-dioxotetrahydropyrimidin-1(2H)-yl)-6-fluoro-1H-indol-1-yl)piperidin-1-yl)methyl)piperidin-1-yl)-3-fluorobenzamide] the pDC50 [2] was at least 8.0 and the Dmax [2] was at least 80%.

For `CC1(C)[C@H](NC(=O)c2ccc(N3CCC(CN4CCC(n5ncc6c(N7CCC(=O)NC7=O)ccnc65)CC4)CC3)c(F)c2)C(C)(C)[C@H]1Oc1ccc(C#N)c2ncccc12` [Example 40, N-((1r,3r)-3-((8-Cyanoquinolin-5-yl)oxy)-2,2,4,4-tetramethylcyclobutyl)-4-(4-((4-(4-(2,4-dioxotetrahydropyrimidin-1(2H)-yl)-1H-pyrazolo[3,4-b]pyridin-1-yl)piperidin-1-yl)methyl)piperidin-1-yl)-3-fluorobenzamide], the pDC50 [2] was at least 8.0 and the Dmax [2] was at least 80%.

With `CC1(C)[C@H](NC(=O)c2ccc(N3CCC4(CC3)CC(N3CCC(n5ncc6c(N7CCC(=O)NC7=O)cccc65)CC3)C4)c(F)c2)C(C)(C)[C@H]1Oc1ccc(C#N)c2ncccc12` [Example 49, N-((1r,3r)-3-((8-Cyanoquinolin-5-yl)oxy)-2,2,4,4-tetramethylcyclobutyl)-4-(2-(4-(4-(2,4-dioxotetrahydropyrimidin-1(2H)-yl)-1H-indazol-1-yl)piperidin-1-yl)-7-azaspiro[3.5]nonan-7-yl)-3-fluorobenzamide] the pDC50 [2] was at least 8.0 and the Dmax [2] was at least 80%.

With `CC1(C)[C@H](NC(=O)c2ccc(N3CCC(CN4CCC(n5ccc6c(N7CCC(=O)NC7=O)c(F)ccc65)CC4)CC3)c(F)c2)C(C)(C)[C@H]1Oc1ccc(C#N)c2ncccc12` [Example 51, N-((1r,3r)-3-((8-Cyanoquinolin-5-yl)oxy)-2,2,4,4-tetramethylcyclobutyl)-4-(4-((4-(4-(2,4-dioxotetrahydropyrimidin-1(2H)-yl)-5-fluoro-1H-indol-1-yl)piperidin-1-yl)methyl)piperidin-1-yl)-3-fluorobenzamide] the pDC50 [2] was at least 8.0 and the Dmax [2] was at least 80%.
